For 33 molecules, binding results are on record in US20260159603A1.

Sequences of proteins named here, by UniProt entry; tags and fusion partners are left off. Residues count along the entry.
UniProt P06127, residues 25-495: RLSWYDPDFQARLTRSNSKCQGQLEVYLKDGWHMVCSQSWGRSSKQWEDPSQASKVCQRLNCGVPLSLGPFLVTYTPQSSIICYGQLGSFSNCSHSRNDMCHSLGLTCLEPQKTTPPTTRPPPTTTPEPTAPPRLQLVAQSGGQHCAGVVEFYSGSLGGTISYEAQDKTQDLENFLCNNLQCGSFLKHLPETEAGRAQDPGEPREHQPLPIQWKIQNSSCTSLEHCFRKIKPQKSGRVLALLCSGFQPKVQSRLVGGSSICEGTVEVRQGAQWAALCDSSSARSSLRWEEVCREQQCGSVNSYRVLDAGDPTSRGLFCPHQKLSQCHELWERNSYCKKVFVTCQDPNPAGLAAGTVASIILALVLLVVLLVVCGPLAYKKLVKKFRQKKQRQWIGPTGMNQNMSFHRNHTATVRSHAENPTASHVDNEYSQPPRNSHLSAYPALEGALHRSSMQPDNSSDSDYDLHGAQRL

Changes are numbered by the printed parent chain. These are yes or no findings as the source states them, for the method shown. Some entries that bind do so weakly or less than the wild type. For part of these data: Where a sequence is shown, tags or fusion partners need not be part of it.

One assay has as its target CD5 on Jurkat cells (UniProt P06127). Put plainly: flow cytometry, VHH-Fc titrated on Jurkat cells.
In assay [1] the target is human CD5 on transfected HEK293T cells (human) (UniProt P06127). Nature of the assay: flow cytometry, periplasmic extract on transfected HEK293T cells. On the technique in general: In flow cytometry, cells or beads pass a laser one at a time.

B1: ABTx319 VHH-Fc (Fc fusion, not shown: a dimerising Fc or GST)
chain: QVQLVESGGGLVQPGGSLRLSCAASGFTFSMYSMSWVRQAPGKRLEWVSSISTGARDTAYADSVKGRFTISRDNADNTLYLHMNNLKPEDTAVYYCANGDLRYGPDGYDYRGQGTQVTVSS
As to B1, the binding entry with CD5 on Jurkat cells is recorded as “binds”.

B2: ABTx319 (VHH, not shown: large carriers)
VHH: B1 chain
Take B2: in assay [1], the binding entry is recorded as “binds”.

B3: ABTx324 (VHH, not shown: large carriers)
VHH: QVQLVESGGGLVQPGGSVRLSCATSGSIFSTNVMGWYRQAPGKEREFVALIRGGGSTHYADSVKGRFIISRENAKTTVYLQMNGLKPEDTAVYYCVIWLGSPGAMSDYWGQGTQVTVSS
As to B3, the binding result in assay [1] is given as “binds”.

B4: ABTx324 VHH-Fc (Fc fusion, not shown: a dimerising Fc or GST)
chain: B3 VHH
In the case of B4, in the assay with CD5 on Jurkat cells, the binding result is given as “binds”.

B5: ABTx316 VHH-Fc (Fc fusion, not shown: a dimerising Fc or GST)
chain: QVQLVESGGGLVQAGGSLRLSCAASGGTVSSYAMGWFRQAPGKEREFVAVISWSGGRTYYADSVKGRFTISRDNAKNTVNLQMNSLKPEDTAVYYCAADPWTSDSDYERLTMYDYWGQGTQVTVSS
Consider B5, for which the binding result with CD5 on Jurkat cells was “binds”.

B6: ABTx316 (VHH, not shown: large carriers)
VHH: B5 chain
Turning to B6, in assay [1], the binding entry was “binds”.

B7: ABTx317 VHH-Fc (Fc fusion, not shown: a dimerising Fc or GST)
chain: QVQLVESGGGLVQAGASLRLSCAASGRTTYNMGWFRHAPGKDREFVAAIDLYGRATRYANSVKGRFTISRDNAKNTVYLQMNSLKPEDTAVYYCAADTSLPLGVLTKSQRMYGAWGQGTQVTVSS
As to B7, the binding result with CD5 on Jurkat cells was “binds”.

B8: ABTx331 VHH-Fc (Fc fusion, not shown: a dimerising Fc or GST)
chain: B7 chain with K107E, M111L
As to B8, the binding entry with CD5 on Jurkat cells is given as “binds”.

B9: ABTx331 (VHH, not shown: large carriers)
VHH: B7 chain with K107E, M111L
B9: in assay [1], the binding entry is recorded as “binds”.

B10: ABTx317 (VHH, not shown: large carriers)
VHH: B7 chain
B10: the binding result in assay [1] is listed as “binds”.

B11: ABTx325 (VHH, not shown: large carriers)
VHH: QVQLVESGGGLVQPGGSLRLSCAASGSDASTNNMAWYRQAPGKEREFVALIRTGGSTHVADSMKGRFTISRENAKNTVYLQMNSLKPEDTAVYYCVIWTGSPGALSDYWGQGTQVTVSS
As for B11, in assay [1], the binding result is “binds”.

B12: ABTx325 VHH-Fc (Fc fusion, not shown: a dimerising Fc or GST)
chain: B11 VHH
Turning to B12, in the assay with CD5 on Jurkat cells, the binding result is recorded as “binds”.

B13: ABTx320 (VHH, not shown: large carriers)
VHH: QVQLVESGGGLVQAGGSLRLSCAASGPAFSSSGMGWFRQAPGKAREFVASMDWTGGSTYYGDSVKGRFTVSRDNAKMTVHLQMNSLRPEDTAVYYCARGTSGVAAVNLRGFFSWGPGTQVTVSS
Regarding B13, the binding entry in assay [1] is on record as “binds”.

B14: ABTx320 VHH-Fc (Fc fusion, not shown: a dimerising Fc or GST)
chain: B13 VHH
As to B14, the binding result in the assay with CD5 on Jurkat cells is given as “binds”.

B15: ABTx327 VHH-Fc (Fc fusion, not shown: a dimerising Fc or GST)
chain: QVQLVESGGGLVQPGGSLRLSCVASGGTFSTYGMGWFRQAPGKEREFVAVITGSGVGTQYADSVKDRFTISRENAKNTVYLQMNTLKLEDTAVYYCVSGHRPGWAVIRADAYEYWGQGTQVTVSS
Turning to B15, in the assay with CD5 on Jurkat cells, the binding entry is given as “binds”.

B16: ABTx327 (VHH, not shown: large carriers)
VHH: B15 chain
On to B16, for which, in assay [1], the binding result was “binds”.

B17: ABTx322 (VHH, not shown: large carriers)
VHH: QLQLVESGGGLVQPGGSLRLSCAASGSDFLVDATTWFRQAPGNQREFVAIMDIGGVTEYADSVKGRFTISRDHTKNTVYLQMNSLKVEDTAVYYCNTRGLWGQGTLVTVSS
Regarding B17, in assay [1], the binding entry is “binds”.

B18: ABTx322 VHH-Fc (Fc fusion, not shown: a dimerising Fc or GST)
chain: B17 VHH
As to B18, the binding entry with CD5 on Jurkat cells is given as “binds”.

B19: ABTx330 VHH-Fc (Fc fusion, not shown: a dimerising Fc or GST)
chain: EVQLVESGGGLVQPGGSLRLSCAASGFPFSSSFMSWVRQAPGKGLEWVSTIYSDGSTYYADSVKGRFTISRDNAKKTAYLQMNSLKAEDTAVYYCATVTGSIRGQGTQVTVSS
Turning to B19, the binding result with CD5 on Jurkat cells is listed as “binds”.

B20: ABTx330 (VHH, not shown: large carriers)
VHH: B19 chain
Turning to B20, the binding result in assay [1] is listed as “binds”.

B21: ABTx326 (VHH, not shown: large carriers)
VHH: QVQLVESGGGLVQPGGSLRLSCAASGRTFINYAAGWFRQAPGKEREFVARISRSGGRTDYADSVKGRFTISRDNAKSTVYLQMNSLRPEDTAVYYCAEATVWEFTDGADQYDYWGQGTQVTVSS
For B21, the binding entry in assay [1] is “binds”.

B22: ABTx326 VHH-Fc (Fc fusion, not shown: a dimerising Fc or GST)
chain: B21 VHH
Regarding B22, in the assay with CD5 on Jurkat cells, the binding entry is “binds”.

B23: ABTx323 (VHH, not shown: large carriers)
VHH: QVQLQESGGGLVQAGGSLRLSCATSGITSSINVIGWYRQAPGKQRELVALVNSGGQTHYADSVKGRFTISRDNAKNTVFLQMNSLKPEDTAEYYCHGRYGIDNYWGEGTQVTVSS
In the case of B23, in assay [1], the binding result was “binds”.

B24: ABTx323 VHH-Fc (Fc fusion, not shown: a dimerising Fc or GST)
chain: B23 VHH
B24: the binding result in the assay with CD5 on Jurkat cells is reported as “binds”.

B25: ABTx318 VHH-Fc (Fc fusion, not shown: a dimerising Fc or GST)
chain: QVQLQESGGGSVQAGGSLRLSCAASGRAFSAYAMGWFRQAPGKEREFVAAINWNGDTALRWNGFATRYADSVKGRFTISRVIAKNTVNLQMNSLKPEDTAVYYCAADTVVSGSYYLAARAEDYEYWGQGTQVTVSS
For the molecule B25, the binding result with CD5 on Jurkat cells was “binds”.

B26: ABTx315 (VHH, not shown: large carriers)
VHH: QVQLVESGGGLVQAGGSLRLSCAASGRTFGTYTMGWFRQAPGREREFVAAISWSAGRTYYADSMKGRFTISRDNAKNTVYLQMNSLKPEDTAVYYCAADPWTSDSDYDRLTMYDYWGQGTQVTVSS
Regarding B26, the binding result in assay [1] is “binds”.

B27: ABTx315 VHH-Fc (Fc fusion, not shown: a dimerising Fc or GST)
chain: B26 VHH
Consider B27, for which the binding entry with CD5 on Jurkat cells is on record as “binds”.

B28: ABTx329 VHH-Fc (Fc fusion, not shown: a dimerising Fc or GST)
chain: QLQLVESGGGLVQPGESLRLSCAASGFSFSRVGMNWYRQAPGKERELVASISSDGSRTNYAHFVKGRFTISRDNVKNMVYLQMNSLKLEDTAVYYCNVPGNSWGQGTQVTVSS
Regarding B28, the binding entry with CD5 on Jurkat cells was “binds”.

B29: ABTx329 (VHH, not shown: large carriers)
VHH: B28 chain
Regarding B29, the binding entry in assay [1] is given as “binds”.

B30: ABTx321 (VHH, not shown: large carriers)
VHH: QLQLVESGGGLVQPGESLRLSCVVSGDIFSFVGWGWYRQAPGKQREVVAQISTGGLTNYADSVKGRFAISRDNAKRTVYLQMNSLKFEDTAVYYCNVPGHPWGQGTQVTVSS
As for B30, the binding result in assay [1] is listed as “binds”.

B31: ABTx328 (VHH, not shown: large carriers)
VHH: B30 VHH with L2V, V32I, V47L, S52N, N58D, A68T, V97F, P101S
For B31, in assay [1], the binding result is “binds”.

B32: ABTx321 VHH-Fc (Fc fusion, not shown: a dimerising Fc or GST)
chain: B30 VHH
Turning to B32, the binding entry with CD5 on Jurkat cells was “binds”.

B33: ABTx328 VHH-Fc (Fc fusion, not shown: a dimerising Fc or GST)
chain: B30 VHH with L2V, V32I, V47L, S52N, N58D, A68T, V97F, P101S
On to B33, for which, in the assay with CD5 on Jurkat cells, the binding entry is reported as “binds”.
